Library screen at single concentrations

By UniProt entry, the sequences of proteins in these tests, tags left out.
UniProt P9WFT3, whole entry: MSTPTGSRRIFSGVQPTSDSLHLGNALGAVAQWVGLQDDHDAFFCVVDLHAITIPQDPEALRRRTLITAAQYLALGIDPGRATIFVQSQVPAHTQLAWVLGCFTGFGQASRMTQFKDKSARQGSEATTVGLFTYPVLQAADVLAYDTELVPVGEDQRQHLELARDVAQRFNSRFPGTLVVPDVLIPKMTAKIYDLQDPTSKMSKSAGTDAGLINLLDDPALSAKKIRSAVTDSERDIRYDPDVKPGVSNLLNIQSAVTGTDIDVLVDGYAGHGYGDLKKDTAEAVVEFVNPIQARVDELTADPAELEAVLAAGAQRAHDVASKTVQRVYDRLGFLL
UniProt P9WPC5, whole entry: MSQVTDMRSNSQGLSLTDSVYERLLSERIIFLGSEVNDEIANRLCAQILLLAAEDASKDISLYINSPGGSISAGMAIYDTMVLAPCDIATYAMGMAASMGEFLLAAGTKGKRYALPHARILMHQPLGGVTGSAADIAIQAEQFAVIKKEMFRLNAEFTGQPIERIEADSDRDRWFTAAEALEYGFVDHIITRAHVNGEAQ
UniProt P9WPC3, whole entry partner: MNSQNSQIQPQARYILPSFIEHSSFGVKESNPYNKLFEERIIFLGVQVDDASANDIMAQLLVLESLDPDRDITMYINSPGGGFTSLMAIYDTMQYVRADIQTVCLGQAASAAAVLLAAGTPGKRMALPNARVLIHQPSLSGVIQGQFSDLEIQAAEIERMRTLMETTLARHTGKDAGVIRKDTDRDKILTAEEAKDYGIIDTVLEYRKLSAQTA
UniProt P9WNZ1, whole entry: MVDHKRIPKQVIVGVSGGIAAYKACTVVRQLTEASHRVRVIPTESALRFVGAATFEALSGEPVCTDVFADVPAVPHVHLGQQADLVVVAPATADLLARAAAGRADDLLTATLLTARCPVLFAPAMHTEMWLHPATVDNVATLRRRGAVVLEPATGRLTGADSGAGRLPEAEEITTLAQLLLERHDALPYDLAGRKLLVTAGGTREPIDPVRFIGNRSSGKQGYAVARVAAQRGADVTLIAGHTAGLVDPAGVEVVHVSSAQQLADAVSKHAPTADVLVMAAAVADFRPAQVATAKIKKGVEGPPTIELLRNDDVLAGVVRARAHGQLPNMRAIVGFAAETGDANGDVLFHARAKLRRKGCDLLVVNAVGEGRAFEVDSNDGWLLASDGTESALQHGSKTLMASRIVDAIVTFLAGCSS
UniProt I6X8D2, whole entry: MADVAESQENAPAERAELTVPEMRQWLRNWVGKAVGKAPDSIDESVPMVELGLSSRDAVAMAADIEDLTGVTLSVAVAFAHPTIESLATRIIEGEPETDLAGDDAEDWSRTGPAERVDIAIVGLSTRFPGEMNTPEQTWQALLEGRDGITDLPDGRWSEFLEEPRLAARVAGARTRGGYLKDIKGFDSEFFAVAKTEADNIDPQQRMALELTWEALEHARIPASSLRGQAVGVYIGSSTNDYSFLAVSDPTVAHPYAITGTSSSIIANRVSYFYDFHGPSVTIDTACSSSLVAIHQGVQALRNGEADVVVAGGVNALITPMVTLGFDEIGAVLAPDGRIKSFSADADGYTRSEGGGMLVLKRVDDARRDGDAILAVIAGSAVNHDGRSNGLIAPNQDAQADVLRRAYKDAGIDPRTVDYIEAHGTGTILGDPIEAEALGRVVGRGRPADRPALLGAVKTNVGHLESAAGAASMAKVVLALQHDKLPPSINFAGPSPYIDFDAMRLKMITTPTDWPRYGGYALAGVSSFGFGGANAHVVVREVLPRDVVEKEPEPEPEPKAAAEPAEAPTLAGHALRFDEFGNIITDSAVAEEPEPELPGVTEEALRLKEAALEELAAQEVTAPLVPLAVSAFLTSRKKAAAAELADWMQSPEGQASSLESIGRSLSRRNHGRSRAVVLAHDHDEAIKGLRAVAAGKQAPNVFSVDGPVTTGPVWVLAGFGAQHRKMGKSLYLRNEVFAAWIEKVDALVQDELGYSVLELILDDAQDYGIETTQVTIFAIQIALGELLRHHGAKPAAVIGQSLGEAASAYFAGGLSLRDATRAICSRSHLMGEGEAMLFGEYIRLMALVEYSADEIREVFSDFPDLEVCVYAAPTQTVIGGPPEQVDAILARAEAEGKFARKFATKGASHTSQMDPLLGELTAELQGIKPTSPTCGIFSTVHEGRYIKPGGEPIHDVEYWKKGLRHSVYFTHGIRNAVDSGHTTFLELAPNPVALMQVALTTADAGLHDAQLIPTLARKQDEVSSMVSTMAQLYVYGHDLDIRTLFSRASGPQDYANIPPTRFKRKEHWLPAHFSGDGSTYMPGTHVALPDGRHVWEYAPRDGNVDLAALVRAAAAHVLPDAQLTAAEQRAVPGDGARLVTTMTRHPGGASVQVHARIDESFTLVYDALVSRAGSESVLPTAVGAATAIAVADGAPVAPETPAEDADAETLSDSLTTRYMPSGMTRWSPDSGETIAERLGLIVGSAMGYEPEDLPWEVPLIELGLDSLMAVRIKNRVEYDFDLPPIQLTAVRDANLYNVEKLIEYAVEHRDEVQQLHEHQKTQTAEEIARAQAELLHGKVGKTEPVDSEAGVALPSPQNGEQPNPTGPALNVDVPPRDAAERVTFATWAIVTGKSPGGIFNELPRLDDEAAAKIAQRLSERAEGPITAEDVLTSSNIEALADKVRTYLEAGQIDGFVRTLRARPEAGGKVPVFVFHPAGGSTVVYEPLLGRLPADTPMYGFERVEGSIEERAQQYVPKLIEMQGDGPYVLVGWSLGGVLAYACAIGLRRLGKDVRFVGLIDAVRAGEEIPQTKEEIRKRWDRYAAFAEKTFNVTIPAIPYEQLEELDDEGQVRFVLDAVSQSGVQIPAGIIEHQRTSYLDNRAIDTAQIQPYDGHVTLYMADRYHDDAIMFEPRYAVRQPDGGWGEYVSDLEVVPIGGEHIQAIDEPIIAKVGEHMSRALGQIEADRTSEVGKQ

Measurements from “University of Dundee, Small-Polar-MMV Screening Library” (2021), ChEMBL document CHEMBL3988442.

MtTrpRS: 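Tryptophan-tRNA ligase, Mycobacterium tuberculosis (UniProt P9WFT3). Enzyme assay of tryptophanyl-tRNA synthetase; the read-out is not stated. Concentration: 10 µM. Direction is not recorded; retested compounds ran higher, which suggests that high means inhibition. Of about 65,000 compounds tested this way, about 64 (0.098%) reached 50% or more in at least one test.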
Toxoplasma: 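Assay of Toxoplasma gondii numbers, read through their beta-galactosidase reporter with a colour substrate. Concentration: 10 µM. Higher reads as fewer parasites (inferred from which compounds were picked for retests). About 67,000 compounds were tested under these conditions; 0.38% (about 260) showed 50% or more at least once.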
ClpP1P2: 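ClpP1P2, Mycobacterium tuberculosis (UniProt P9WPC5 and UniProt P9WPC3). Protease assay of ClpP1P2, read by the AMC dye that it sets free. Tested at 50 µM. Higher reads as stronger inhibition, judged from the few compounds that gave an IC50. Most other retested compounds had strongly negative values. Size under these conditions: about 69,000 compounds, about 10 of them at 50% or above in at least one test.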
CoaBC: 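Coenzyme A biosynthesis protein CoaBC, Mycobacterium tuberculosis (UniProt P9WNZ1). Enzyme assay of CoaBC with a phosphate dye (Biomol Green) read at 650 nm. Concentration: 30 µM. Higher reads as stronger inhibition, judged from the few compounds that gave an IC50. Most strong results did not repeat in a second test. Of about 67,000 compounds tested this way, about 40 (0.06%) reached 50% or more in at least one test.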
Pks13 thioesterase: 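Polyketide synthase Pks13, Mycobacterium tuberculosis (UniProt I6X8D2). Enzyme assay of the thioesterase domain of polyketide synthase 13; the read-out is not stated. Concentration: 30 µM. The record gives no direction; the compounds picked for IC50 retests had high values, so higher reads as stronger inhibition. About 67,000 compounds were tested under these conditions; 0.46% (about 300) showed 50% or more at least once.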

Results are given as percent effect.
The controls that fix the scale are not given in the record; negative values are as filed.
Compounds were drawn at random from those tested, without regard to their results.
Two or more numbers in one place are separate tests of the same structure; such repeats can differ widely.
A dash means the value is not listed here; it may have been measured.

compound | MtTrpRS | Toxoplasma | ClpP1P2 | CoaBC | Pks13 thioesterase
O=S(=O)(c1cccs1)N1CC[C@H]2[C@H]1CCN2CC1CC1 | -2.021 | - | -8.677 | 4.835 | -12.6
CC1CCN(S(=O)(=O)NCCCn2cncn2)CC1 | 3.216 | -2.868 | 0.3663 | 4.7 | -11
CC(C)c1cc(N2CCN(c3ccc(O)cc3)CC2)n2nccc2n1 | -3.759 | -13.42 | 3.98 | 7.456 | 8.421
COc1cccc(C(=O)N2CCCC(c3cc(C)[nH]n3)C2)c1OC (stereo not given) | -0.8607 | 7.524 | 6.514 | 2.254 | -13.91
Cc1cc(NC(=O)CN2CCn3c(nnc3C(C)C)C2)no1 | -0.2346 | 4.903 | 31.73 | -3.846 | 7.119
O=C(c1ccc2c(c1)COC2)N1CCCC(n2cncn2)C1 (stereo not given) | -6.236 | -2.059 | -16.32 | 3.448 | -9.129
CC(Oc1cc(Cl)cc(Cl)c1)C(=O)NCCC(=O)N(C)C (stereo not given) | 1.872 | -2.798 | 10.53 | 1.214 | -0.01438
O=C(O)C(F)(F)F.[H][C@]12C[C@@H](Cn3cncn3)N(C(C)C)[C@@]1([H])CCN(c1ncccn1)C2 | - | 7.053 | - | - | -
CO[C@H]1CN(C(=O)c2ccnnc2)[C@@H]2COC[C@H]12 | 2.267 | - | 13.32 | 1.681 | -17.56
Cl.Cn1nc(C2CCCN(Cc3ccc(F)cc3)C2)c2nccnc21 (stereo not given) | - | -8.172 | - | - | -
COCCN1CC2(CCC1=O)CCN(Cc1cc(F)ccc1Cl)CC2 | -2.344 | -0.8274 | 10.69 | 3.599 | -23.15
O=C(O)C(F)(F)F.[H][C@@]12CN(C(=O)c3ccoc3C)C[C@@]1([H])N(Cc1cccnc1)C(=O)CO2 | - | -2.032 | - | - | -
CS(=O)(=O)N1CCC(Oc2cnccn2)CC1 | -3.638 | -3.215 | -10.58 | 2.155 | -7.748
c1ccc(OC2COC3(CCN(Cc4ccccn4)CC3)C2)cc1 (stereo not given) | 13.72 | - | -4.823 | 4.821 | -10.13
Cc1noc(C)c1-c1n[nH]c2c1CN(S(=O)(=O)c1cccnc1)CC2 | -2.709 | -3.395 | -11.32 | -0.6143 | 1.667
CNC(=O)CN1C(=O)CCC12CCCN(CCc1ccccc1)C2 (stereo not given) | -3.476 | -15.7 | -13.49 | -0.5089 | -61.39
c1cncc(OC[C@]23COC[C@H]2CN(Cc2cccs2)C3)c1 | -3.189 | - | 3.581 | -1.863 | -3.773
CN(CCc1ccccc1)C1CCCN(Cc2nccn2C)C1 (stereo not given) | 1.74 | 15.19 | -11.73 | -15.91 | -20.15
N#Cc1cccc(CN2CCN(C(=O)C3CCC3)[C@@H]3CS(=O)(=O)C[C@@H]32)c1 | 7.791 | - | -6.738 | 1.794 | -17.14
Cn1ncnc1CNC(=O)N(CCCO)C1CCc2ccccc21 (stereo not given) | -1.521 | -1.628 | -0.9684 | -4.132 | -1.262
C1CCC(CNC2CCCN(Cc3noc(C4CC4)n3)C2)CC1 (stereo not given) | 9.545 | 6.101 | 22.64 | 4.133 | -21.27
Cc1ccc(CNC(=O)Nc2nnc(C3CC3)s2)n1C | 0.455 | -0.23 | -5.025 | 5.622 | -19.27
CCN(C)S(=O)(=O)N1CCCC(c2cccc(C(=O)O)c2)C1 (stereo not given) | -1.671 | 0.05797 | -4.061 | 4.292 | -30.48
c1ccc(CCNc2ncnc3c2CCN(Cc2c[nH]cn2)CC3)cc1 | 1.424 | 4.773 | -4.16 | -20.59 | -15.46
CCS(=O)(=O)N1CCN(c2cc(-n3cnc(C)c3C)nc(C)n2)CC1 | -0.8081 | 18.96 | -15.23 | 3.758 | 10.43
CC(Cc1ccco1)NC(=O)C1=NN(c2ccccc2)C(=O)CC1 (stereo not given) | 0.8258 | 7.702 | 3.991 | 5.466 | -30.88
CN(C)C(=O)Cn1cc(C#N)c(=O)c2cc(Br)ccc21 | -6.884 | - | -4.636 | 0.123 | 1.223
CC(C)=CCCC1(C)CCC(=O)N(CCc2nc(N)cc(O)n2)C1 (stereo not given) | 1.098 | 8.88 | -2.857 | -6.1 | -0.2526
Cc1cc(N[C@H](CO)COCc2ccccc2)n2nc(C)cc2n1 | 1.158 | -28.74 | -30.67 | 1.118 | -8.814
O=C(NC1CC1)[C@H]1C[C@H]2OCC[C@H]2N(CC2CC2)C1 | 0.9444 | - | 3.556 | -2.665 | -8.793
CN1CCCCc2c1nc1c(c2N)CCCC1 | 2.304 | -3.659 | -0.6299 | 4.126 | -8.33
O=C(CCn1ccc2ccccc21)N1CCC(Nc2cccnn2)CC1 | -6.061 | -56.58 | 0.2553 | 0.8464 | -10.86
CN(C)CCN1CCOCC2(CCCN(C(=O)Cc3ccccc3)C2)C1.O=C(O)C(F)(F)F.O=C(O)C(F)(F)F (stereo not given) | - | -5.972 | - | - | -
Cc1occc1CNC(=O)N1CCC(Cc2cnn(C)c2)C1 (stereo not given) | -1.352 | -12.9 | -32.16 | 6.65 | -16.53
Cc1cnn(CCNCc2cccnc2)c1 | -1.462 | 4.893 | 0.4077 | -1.828 | -6.609
CCn1cc(CN2CCCN(C(=O)CCn3cc(C)cn3)CC2)cn1 | 2.824 | -9.318 | 13.12 | 6.323 | -16.38
CCn1cc(-c2cc(-c3ccn(C)c3)nc(N)c2C#N)cc1C#N | 4.025 | 1.285 | -185.4 | 11.16 | 58.33
COCc1nc(-c2ccnc(N3CCNCC3)n2)no1 | -6.433 | - | -11.73 | 0.9206 | -6.942
O=S(=O)(CCCS(=O)(=O)c1ccc2c(c1)OCCCO2)c1ccccc1 | 0.9828 | -2.58 | 8.065 | 2.288 | -15.13
Cn1cc(N2CC3(CCN(Cc4cccnc4)CC3)OCC2=O)cn1 | 1.146 | - | -0.5318 | -9.533 | -6.052
CCc1cc(N2CCC(NCc3ccc(C)o3)CC2)ncn1 | 0.6121 | -15.75 | -12.58 | 1.129 | -6.825
Cc1cccc(C(C(=O)NCCCc2nnc3ccccn23)N(C)C)c1 (stereo not given) | 1.817 | 1.558 | -6.024 | -1.242 | -22.02
CC1CCN(C(=O)c2ccn(COc3ccc(F)cc3)n2)CC1 | -3.065 | -4.907 | 8.345 | -8.182 | 4.915
CC(C)(C)c1coc([C@@H]2COCCN2Cc2ccccn2)n1 | -0.07628 | -6.47 | -6.271 | 13.95 | 12.97
[H][C@@]12COC[C@]1([H])[C@@H](OCCN(C)C)CN2C(=O)c1ccc[nH]1 | - | 2.794 | - | - | -
CC(C)c1cnc(CN2CCCC(c3ccn[nH]3)C2)o1 (stereo not given) | 2.741 | 5.032 | -18.49 | 1.222 | -5.426
CCCC1(CO)CCCN(c2ncccc2F)C1 (stereo not given) | -0.5418 | -7.617 | 3.287 | -10.02 | -16.79
CNC(=O)[C@@]12CCC3(CCN(S(=O)(=O)C4CC4)CC3)[C@@H]1CN(C(C)=O)C2 | 8.258 | - | 15.19 | 9.794 and 22.47 | -14.22
[H][C@@]12CS(=O)(=O)C[C@]1([H])N(C(=O)CCn1cc(C)cn1)CCN2C(=O)C(C)C | - | -36.07 | - | - | -
Cc1nc(CNC(=O)NCC(F)(F)F)oc1C | -0.8073 | -6.524 | 1.623 | -6.653 | -15.17
OC(COCc1cccs1)Cn1cc(Cl)cn1 (stereo not given) | 2.083 | 10.42 | 21.16 | 1.01 | -3.139
CCC(C)CNCC1(S(C)(=O)=O)CCOCC1 (stereo not given) | -0.7009 | 5.907 | -8.574 | -1.899 | 7.544

The last 6 entries again:

compound	MtTrpRS	Toxoplasma	ClpP1P2	CoaBC	Pks13 thioesterase
CCCC1(CO)CCCN(c2ncccc2F)C1 (stereo not given)	-0.5418	-7.617	3.287	-10.02	-16.79
CNC(=O)[C@@]12CCC3(CCN(S(=O)(=O)C4CC4)CC3)[C@@H]1CN(C(C)=O)C2	8.258	-	15.19	9.794 and 22.47	-14.22
[H][C@@]12CS(=O)(=O)C[C@]1([H])N(C(=O)CCn1cc(C)cn1)CCN2C(=O)C(C)C	-	-36.07	-	-	-
Cc1nc(CNC(=O)NCC(F)(F)F)oc1C	-0.8073	-6.524	1.623	-6.653	-15.17
OC(COCc1cccs1)Cn1cc(Cl)cn1 (stereo not given)	2.083	10.42	21.16	1.01	-3.139
CCC(C)CNCC1(S(C)(=O)=O)CCOCC1 (stereo not given)	-0.7009	5.907	-8.574	-1.899	7.544